This data set is described as follows: general procedure: Fmoc solid-phase peptide synthesis in flow; Fmoc-β-alanine-CLEAR acid resin, 0.50 meq/g (Peptide Institute); Fmoc-β-alanine-Wang resin; HATU/DIEA. Conditions: whole synthesis.

Strings that start with PEPTIDE1 are HELM notation: dots part the residues, brackets hold end groups and non-standard residues.

This is an account of results in US7807844B2 (Nihon University, priority 2003, dated 2010).

“PEPTIDE1{[FITC].[bAla].[Im].[Py].[Py].[bAla].[Im].[Py].[Py].[gAbu].[Py].[Py].[Py].[bAla].[Py].[Py].[bAla].[Dp]}$$$$V2.0” yielded an isolated mass of 7 mg. Under “scale of the general procedure 0.1 mmol”, this substance displayed an isolated yield of 3%.
